In US20130030237A1, “POTENTIATION OF ANTI-CANCER ACTIVITY THROUGH COMBINATION THERAPY WITH BER PATHWAY INHIBITORS” (priority 2010, published 2013):
At least one compound was matched to its structure with a doubt left.

System: tumor xenografts (WM9)
Experiment: Melanoma xenografts (WM9) in nude mice
Format: in vivo
Settings: treatment for 5 days

## Cn1nnc2c(C(N)=O)ncn2c1=O [TMZ, temozolomide]
  tumor growth compared with untreated mice: No significant differences in tumor growth
